Construct, isoform or probe ends are uncertain for at least one entry. Weaker means in comparison with the reference protein, sequence or condition of that experiment.
System: His-MKRN1 wt + His-PABPC1
Test: pull-down
Conditions: PABPC1 does not increase MKRN1 recovery on control RNA; Binding: 50 mM Tris-HCl pH 7.4, 500 mM KCl, 12.5 mM MgCl2, 1% Triton X-100, 1 h, 4 °C; wash: 200 mM NaCl, 10 mM MgCl2, 50 mM HEPES pH 7.4, 0.5% Igepal CA630; recombinant protein; protein details: N-His6,N-His6; label: 3' biotin

“GGAAAUAAACUGUAGAGUUCCACGGAGCGACCCACCGAGCGC [Control RNA (SRSF4 3' UTR end + V20)]”: binds more weakly.

Reference: article PMC6805484
